The supplement of paper PMC12067093, “Discovery and optimisation of a covalent ligand for TRIM25 and its application to targeted protein ubiquitination” (Chemical Science, 2025)
Some of the results follow.

Sequences of proteins named here, by UniProt entry; tags and fusion partners are left off. A change or cut given only in a name is not applied to a line headed by its entry.
UniProt P05771, whole entry, looked up: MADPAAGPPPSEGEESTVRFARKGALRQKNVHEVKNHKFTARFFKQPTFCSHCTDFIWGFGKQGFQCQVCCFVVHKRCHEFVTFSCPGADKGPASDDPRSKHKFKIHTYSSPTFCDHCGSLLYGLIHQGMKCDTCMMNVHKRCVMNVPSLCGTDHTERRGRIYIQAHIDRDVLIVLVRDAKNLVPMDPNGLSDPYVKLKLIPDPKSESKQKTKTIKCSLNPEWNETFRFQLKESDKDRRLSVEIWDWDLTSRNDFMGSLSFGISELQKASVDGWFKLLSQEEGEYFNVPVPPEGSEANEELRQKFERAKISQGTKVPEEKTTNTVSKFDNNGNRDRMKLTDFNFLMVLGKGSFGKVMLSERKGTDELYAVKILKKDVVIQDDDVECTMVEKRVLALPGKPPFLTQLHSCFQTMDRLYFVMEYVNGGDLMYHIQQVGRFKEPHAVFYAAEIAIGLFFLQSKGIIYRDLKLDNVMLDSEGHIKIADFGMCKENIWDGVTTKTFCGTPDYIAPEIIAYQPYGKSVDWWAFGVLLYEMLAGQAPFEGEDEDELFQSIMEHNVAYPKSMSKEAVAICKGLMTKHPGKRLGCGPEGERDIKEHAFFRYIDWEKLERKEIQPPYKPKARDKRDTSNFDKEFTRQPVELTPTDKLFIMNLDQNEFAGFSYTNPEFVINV
UniProt O75569: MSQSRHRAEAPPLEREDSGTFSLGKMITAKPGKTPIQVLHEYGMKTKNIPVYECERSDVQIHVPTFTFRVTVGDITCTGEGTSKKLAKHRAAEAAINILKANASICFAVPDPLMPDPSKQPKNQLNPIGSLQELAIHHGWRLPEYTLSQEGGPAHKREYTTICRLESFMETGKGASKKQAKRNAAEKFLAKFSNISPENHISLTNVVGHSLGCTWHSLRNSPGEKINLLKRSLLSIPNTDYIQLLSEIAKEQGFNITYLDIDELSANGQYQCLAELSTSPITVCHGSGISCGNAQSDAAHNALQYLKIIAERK
UniProt P78527, whole entry, looked up: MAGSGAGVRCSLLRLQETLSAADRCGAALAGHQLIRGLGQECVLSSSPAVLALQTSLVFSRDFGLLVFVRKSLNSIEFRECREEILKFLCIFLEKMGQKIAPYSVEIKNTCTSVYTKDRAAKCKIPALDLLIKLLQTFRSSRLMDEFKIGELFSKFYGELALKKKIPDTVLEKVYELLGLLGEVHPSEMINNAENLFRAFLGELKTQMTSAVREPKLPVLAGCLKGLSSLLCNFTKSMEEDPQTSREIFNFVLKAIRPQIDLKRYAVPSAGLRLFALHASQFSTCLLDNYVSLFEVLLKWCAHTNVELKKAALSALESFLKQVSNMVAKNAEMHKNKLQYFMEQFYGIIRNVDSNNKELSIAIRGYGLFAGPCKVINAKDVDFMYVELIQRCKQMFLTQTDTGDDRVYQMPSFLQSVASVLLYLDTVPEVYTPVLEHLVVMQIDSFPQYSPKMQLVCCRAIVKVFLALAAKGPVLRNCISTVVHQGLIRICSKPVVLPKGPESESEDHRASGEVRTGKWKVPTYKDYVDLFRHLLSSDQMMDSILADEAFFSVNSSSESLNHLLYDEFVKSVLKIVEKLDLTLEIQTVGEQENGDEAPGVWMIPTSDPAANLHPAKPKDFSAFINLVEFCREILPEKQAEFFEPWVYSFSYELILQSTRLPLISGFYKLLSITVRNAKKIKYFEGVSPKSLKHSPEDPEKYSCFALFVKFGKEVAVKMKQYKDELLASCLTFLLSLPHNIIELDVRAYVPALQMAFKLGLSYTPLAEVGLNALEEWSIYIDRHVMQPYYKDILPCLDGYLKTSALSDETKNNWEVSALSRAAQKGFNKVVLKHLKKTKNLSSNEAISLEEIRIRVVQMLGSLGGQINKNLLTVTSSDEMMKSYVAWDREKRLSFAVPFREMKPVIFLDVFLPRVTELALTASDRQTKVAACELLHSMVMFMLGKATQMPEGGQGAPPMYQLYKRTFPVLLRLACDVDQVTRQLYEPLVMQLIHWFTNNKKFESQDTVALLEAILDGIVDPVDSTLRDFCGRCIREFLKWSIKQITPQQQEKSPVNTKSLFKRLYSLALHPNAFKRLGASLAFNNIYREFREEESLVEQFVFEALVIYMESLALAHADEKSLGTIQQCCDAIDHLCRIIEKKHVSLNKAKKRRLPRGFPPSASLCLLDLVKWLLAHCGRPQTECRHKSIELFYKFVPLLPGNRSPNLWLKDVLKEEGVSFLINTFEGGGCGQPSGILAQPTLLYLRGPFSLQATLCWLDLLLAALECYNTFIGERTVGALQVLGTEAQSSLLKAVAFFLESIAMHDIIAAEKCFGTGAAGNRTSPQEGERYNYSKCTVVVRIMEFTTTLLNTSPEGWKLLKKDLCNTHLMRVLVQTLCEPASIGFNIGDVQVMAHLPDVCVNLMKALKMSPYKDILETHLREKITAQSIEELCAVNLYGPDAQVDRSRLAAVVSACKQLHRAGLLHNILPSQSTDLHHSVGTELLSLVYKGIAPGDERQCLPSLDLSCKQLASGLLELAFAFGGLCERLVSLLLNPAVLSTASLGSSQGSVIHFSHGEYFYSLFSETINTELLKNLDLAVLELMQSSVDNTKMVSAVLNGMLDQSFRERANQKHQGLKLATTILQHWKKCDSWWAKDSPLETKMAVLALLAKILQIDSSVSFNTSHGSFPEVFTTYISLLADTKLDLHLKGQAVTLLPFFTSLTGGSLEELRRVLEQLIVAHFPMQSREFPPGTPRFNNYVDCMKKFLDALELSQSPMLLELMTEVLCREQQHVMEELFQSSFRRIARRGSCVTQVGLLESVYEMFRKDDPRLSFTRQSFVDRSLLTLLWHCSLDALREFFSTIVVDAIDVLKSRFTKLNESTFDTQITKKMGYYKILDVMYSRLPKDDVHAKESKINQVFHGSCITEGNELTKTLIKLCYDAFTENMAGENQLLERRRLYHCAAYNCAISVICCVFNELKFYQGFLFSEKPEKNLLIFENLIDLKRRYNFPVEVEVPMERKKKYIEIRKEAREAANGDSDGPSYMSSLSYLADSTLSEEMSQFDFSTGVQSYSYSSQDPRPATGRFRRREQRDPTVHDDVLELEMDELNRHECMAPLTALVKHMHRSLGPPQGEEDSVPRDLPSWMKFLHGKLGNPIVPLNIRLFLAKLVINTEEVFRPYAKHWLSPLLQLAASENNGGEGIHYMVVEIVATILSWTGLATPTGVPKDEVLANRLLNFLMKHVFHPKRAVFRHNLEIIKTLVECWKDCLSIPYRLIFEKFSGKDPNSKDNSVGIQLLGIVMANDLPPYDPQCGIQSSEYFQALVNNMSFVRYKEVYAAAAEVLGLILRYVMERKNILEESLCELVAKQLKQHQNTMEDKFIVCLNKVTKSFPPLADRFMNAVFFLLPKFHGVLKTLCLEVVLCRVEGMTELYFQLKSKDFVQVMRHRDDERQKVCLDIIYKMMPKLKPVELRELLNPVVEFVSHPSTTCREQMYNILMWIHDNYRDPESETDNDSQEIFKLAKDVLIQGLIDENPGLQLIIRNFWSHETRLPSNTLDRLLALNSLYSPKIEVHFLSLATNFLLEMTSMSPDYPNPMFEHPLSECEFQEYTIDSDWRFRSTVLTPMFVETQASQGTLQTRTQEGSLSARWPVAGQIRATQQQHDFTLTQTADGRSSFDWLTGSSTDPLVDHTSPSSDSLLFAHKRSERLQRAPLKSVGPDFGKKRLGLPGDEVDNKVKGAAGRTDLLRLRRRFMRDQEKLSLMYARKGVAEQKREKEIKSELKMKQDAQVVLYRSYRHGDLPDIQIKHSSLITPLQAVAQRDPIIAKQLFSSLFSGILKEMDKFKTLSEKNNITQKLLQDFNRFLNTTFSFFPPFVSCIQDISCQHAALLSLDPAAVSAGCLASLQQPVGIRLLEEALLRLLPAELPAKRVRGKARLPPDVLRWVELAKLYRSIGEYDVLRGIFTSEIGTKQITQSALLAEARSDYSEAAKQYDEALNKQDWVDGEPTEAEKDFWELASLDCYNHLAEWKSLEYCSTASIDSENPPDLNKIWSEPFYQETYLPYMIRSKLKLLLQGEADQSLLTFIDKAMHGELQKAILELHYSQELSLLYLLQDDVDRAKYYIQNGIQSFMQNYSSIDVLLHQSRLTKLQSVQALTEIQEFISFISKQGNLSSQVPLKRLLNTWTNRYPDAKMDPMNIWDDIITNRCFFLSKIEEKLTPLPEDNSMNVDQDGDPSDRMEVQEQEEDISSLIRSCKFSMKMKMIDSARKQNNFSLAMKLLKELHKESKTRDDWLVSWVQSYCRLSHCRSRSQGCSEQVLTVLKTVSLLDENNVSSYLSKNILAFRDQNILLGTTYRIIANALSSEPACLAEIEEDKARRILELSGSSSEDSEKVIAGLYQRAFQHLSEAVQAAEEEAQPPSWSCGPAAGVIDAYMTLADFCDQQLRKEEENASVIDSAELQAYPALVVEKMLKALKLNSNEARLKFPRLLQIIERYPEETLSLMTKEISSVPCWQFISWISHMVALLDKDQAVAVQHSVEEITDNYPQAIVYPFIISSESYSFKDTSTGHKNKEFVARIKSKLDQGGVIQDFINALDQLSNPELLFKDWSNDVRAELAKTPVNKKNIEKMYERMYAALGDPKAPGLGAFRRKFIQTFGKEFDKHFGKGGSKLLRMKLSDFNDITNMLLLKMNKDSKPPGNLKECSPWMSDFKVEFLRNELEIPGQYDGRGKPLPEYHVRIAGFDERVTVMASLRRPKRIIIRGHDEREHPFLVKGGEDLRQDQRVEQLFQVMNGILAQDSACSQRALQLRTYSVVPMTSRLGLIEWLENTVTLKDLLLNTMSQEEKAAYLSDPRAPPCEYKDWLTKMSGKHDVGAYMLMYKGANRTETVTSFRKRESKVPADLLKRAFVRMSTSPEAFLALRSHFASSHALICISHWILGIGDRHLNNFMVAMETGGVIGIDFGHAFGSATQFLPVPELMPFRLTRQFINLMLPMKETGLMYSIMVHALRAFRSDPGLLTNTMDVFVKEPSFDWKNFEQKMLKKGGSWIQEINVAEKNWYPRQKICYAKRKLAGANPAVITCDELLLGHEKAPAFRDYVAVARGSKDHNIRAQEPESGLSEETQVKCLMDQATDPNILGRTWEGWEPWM
UniProt P60891: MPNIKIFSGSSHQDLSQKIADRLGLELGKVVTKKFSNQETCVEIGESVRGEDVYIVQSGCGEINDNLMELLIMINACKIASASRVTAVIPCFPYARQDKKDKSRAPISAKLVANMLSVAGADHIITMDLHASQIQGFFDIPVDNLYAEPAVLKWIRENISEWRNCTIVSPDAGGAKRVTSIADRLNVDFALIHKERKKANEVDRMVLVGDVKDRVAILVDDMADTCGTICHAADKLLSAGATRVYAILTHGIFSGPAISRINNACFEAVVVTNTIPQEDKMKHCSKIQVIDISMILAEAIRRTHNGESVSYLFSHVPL
UniProt Q05655: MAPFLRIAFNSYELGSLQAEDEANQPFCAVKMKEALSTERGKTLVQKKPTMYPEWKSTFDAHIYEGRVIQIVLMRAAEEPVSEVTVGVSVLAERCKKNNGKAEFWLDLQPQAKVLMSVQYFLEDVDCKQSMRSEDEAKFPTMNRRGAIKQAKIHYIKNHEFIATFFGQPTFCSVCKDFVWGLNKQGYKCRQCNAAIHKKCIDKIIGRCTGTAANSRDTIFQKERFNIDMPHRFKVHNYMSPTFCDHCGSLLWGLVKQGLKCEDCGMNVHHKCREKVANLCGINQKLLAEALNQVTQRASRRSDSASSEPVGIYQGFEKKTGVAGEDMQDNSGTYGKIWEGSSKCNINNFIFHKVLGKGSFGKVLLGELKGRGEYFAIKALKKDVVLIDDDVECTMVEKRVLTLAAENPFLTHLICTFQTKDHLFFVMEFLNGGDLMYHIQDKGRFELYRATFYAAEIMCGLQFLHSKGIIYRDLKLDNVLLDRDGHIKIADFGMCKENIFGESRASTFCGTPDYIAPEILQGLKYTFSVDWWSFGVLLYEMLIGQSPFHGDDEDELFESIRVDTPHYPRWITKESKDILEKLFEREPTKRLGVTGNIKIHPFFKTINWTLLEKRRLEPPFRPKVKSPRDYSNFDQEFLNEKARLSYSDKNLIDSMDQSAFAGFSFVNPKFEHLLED
UniProt P31323, whole entry: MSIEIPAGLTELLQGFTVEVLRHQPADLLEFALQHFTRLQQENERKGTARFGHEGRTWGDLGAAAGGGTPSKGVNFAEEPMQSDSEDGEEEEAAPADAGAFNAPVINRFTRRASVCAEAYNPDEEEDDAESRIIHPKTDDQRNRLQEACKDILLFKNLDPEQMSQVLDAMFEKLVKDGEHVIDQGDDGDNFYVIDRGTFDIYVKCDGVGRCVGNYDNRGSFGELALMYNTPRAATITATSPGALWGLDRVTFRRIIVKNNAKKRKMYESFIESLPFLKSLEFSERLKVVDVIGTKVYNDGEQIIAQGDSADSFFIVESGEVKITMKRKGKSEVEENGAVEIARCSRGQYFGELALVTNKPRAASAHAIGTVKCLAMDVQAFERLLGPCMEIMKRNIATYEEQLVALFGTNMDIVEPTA

Compound: CC1Cc2ccccc2N1C(=O)C1CCCN(C1)C(=O)CCl (mixture of isomers) [TRIM25 ligand 11 (diastereomer mixture)]
Experiment: probe-labelled cysteine peptide fold change vs DMSO (competition) (log2 fold change); higher = less target engagement (more negative = stronger competition)
Conditions: THP-1, incubation time: 4 h
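Also: competitive chemoproteomic profiling in live THP-1 cells with an iodoacetamide desthiobiotin (IA-DTB) probe, comparing probe-labelled peptide intensities in compound-treated cells against DMSO-treated controls.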

PRKCB_P05771_132_CDTCMMNVHKR (UniProt P05771)
probe-labelled cysteine peptide fold change (10 µM): -0.182 | probe-labelled cysteine peptide fold change (50 µM): -0.3

PRKRA_O75569_213_FSNISPENHISLTNVVGHSLGCTWHSLR (UniProt O75569)
probe-labelled cysteine peptide fold change (10 µM): 0.0941 | probe-labelled cysteine peptide fold change (50 µM): -0.242

PRKDC_P78527_42_GLGQECVLSSSPAVLALQTSLVFSR (UniProt P78527)
probe-labelled cysteine peptide fold change (10 µM): 0.147 | probe-labelled cysteine peptide fold change (50 µM): 0.0725

PRKDC_P78527_795_DILPCLDGYLK (UniProt P78527)
probe-labelled cysteine peptide fold change (10 µM): 0.126 | probe-labelled cysteine peptide fold change (50 µM): 0.125

PRKDC_P78527_1312_CFGTGAAGNR (UniProt P78527)
probe-labelled cysteine peptide fold change (10 µM): 0.0947 | probe-labelled cysteine peptide fold change (50 µM): 0.0509

PRTN3_P24158_56+72_GNPGSHFCGGTLIHPSFVLTAAHCLR (UniProt P24158)
probe-labelled cysteine peptide fold change (10 µM): 0.0297 | probe-labelled cysteine peptide fold change (50 µM): -0.216

PRPS1_P60891_265_INNACFEAVVVTNTIPQEDK (UniProt P60891)
probe-labelled cysteine peptide fold change (10 µM): -0.218 | probe-labelled cysteine peptide fold change (50 µM): 0.109

PRKCD_Q05655_261+264_CEDCGMNVHHK (UniProt Q05655)
probe-labelled cysteine peptide fold change (10 µM): -0.105 | probe-labelled cysteine peptide fold change (50 µM): -0.251

PRKDC_P78527_90_FLCIFLEK (UniProt P78527)
probe-labelled cysteine peptide fold change (10 µM): -0.0507 | probe-labelled cysteine peptide fold change (50 µM): -0.038

PRPF8_Q6P2Q9_1896_GSELQLPFQACLK (UniProt Q6P2Q9)
probe-labelled cysteine peptide fold change (10 µM): 0.0462 | probe-labelled cysteine peptide fold change (50 µM): 0.133

PRKDC_P78527_3781_VEQLFQVMNGILAQDSACSQR (UniProt P78527)
probe-labelled cysteine peptide fold change (10 µM): 0.102 | probe-labelled cysteine peptide fold change (50 µM): 0.0405

PRKD2_Q9BZL6_188_CAFSIPNNCSGAR (UniProt Q9BZL6)
probe-labelled cysteine peptide fold change (10 µM): -0.0184 | probe-labelled cysteine peptide fold change (50 µM): 0.142

PRKRA_O75569_77_VTVGDITCTGEGTSK (UniProt O75569)
probe-labelled cysteine peptide fold change (10 µM): 0.0604 | probe-labelled cysteine peptide fold change (50 µM): 0.0448

PRKDC_P78527_1183_WLLAHCGRPQTECR (UniProt P78527)
probe-labelled cysteine peptide fold change (10 µM): -0.04 | probe-labelled cysteine peptide fold change (50 µM): 0.321

PRPS1_P60891_41_FSNQETCVEIGESVR (UniProt P60891)
probe-labelled cysteine peptide fold change (10 µM): 0.162 | probe-labelled cysteine peptide fold change (50 µM): -0.00081

PRKCD_Q05655_247_VHNYMSPTFCDHCGSLLWGLVK (UniProt Q05655)
probe-labelled cysteine peptide fold change (10 µM): -0.0855 | probe-labelled cysteine peptide fold change (50 µM): -0.16

PRR14L_Q5THK1_1730_SSSSDCTTESSR (UniProt Q5THK1)
probe-labelled cysteine peptide fold change (10 µM): 0.161 | probe-labelled cysteine peptide fold change (50 µM): -0.155

PRMT9_Q6P2P2_290_GESANCEK (UniProt Q6P2P2)
probe-labelled cysteine peptide fold change (10 µM): 0.0447 | probe-labelled cysteine peptide fold change (50 µM): -0.0688

PRKDC_P78527_1176+1183_WLLAHCGRPQTECR (UniProt P78527)
probe-labelled cysteine peptide fold change (10 µM): -0.307 | probe-labelled cysteine peptide fold change (50 µM): -0.0718

PRKAR2B_P31323_116_RASVCAEAYNPDEEEDDAESR (UniProt P31323)
probe-labelled cysteine peptide fold change (10 µM): 0.0279 | probe-labelled cysteine peptide fold change (50 µM): -0.142

PRKRA_O75569_106_ANASICFAVPDPLMPDPSK (UniProt O75569)
probe-labelled cysteine peptide fold change (10 µM): -0.0649 | probe-labelled cysteine peptide fold change (50 µM): -0.118

PRKDC_P78527_1791_RGSCVTQVGLLESVYEMFR (UniProt P78527)
probe-labelled cysteine peptide fold change (10 µM): -0.133 | probe-labelled cysteine peptide fold change (50 µM): -0.498

PRPF8_Q6P2Q9_2216+2223_TIIITCSFTPGSCTLTAYK (UniProt Q6P2Q9)
probe-labelled cysteine peptide fold change (10 µM): -0.318 | probe-labelled cysteine peptide fold change (50 µM): -0.2
